Publication PMC3796546

Amino acid sequences for entries named in this document (tags omitted). A change or cut given only in a name is not applied to a line headed by its entry.
UniProt Q06554: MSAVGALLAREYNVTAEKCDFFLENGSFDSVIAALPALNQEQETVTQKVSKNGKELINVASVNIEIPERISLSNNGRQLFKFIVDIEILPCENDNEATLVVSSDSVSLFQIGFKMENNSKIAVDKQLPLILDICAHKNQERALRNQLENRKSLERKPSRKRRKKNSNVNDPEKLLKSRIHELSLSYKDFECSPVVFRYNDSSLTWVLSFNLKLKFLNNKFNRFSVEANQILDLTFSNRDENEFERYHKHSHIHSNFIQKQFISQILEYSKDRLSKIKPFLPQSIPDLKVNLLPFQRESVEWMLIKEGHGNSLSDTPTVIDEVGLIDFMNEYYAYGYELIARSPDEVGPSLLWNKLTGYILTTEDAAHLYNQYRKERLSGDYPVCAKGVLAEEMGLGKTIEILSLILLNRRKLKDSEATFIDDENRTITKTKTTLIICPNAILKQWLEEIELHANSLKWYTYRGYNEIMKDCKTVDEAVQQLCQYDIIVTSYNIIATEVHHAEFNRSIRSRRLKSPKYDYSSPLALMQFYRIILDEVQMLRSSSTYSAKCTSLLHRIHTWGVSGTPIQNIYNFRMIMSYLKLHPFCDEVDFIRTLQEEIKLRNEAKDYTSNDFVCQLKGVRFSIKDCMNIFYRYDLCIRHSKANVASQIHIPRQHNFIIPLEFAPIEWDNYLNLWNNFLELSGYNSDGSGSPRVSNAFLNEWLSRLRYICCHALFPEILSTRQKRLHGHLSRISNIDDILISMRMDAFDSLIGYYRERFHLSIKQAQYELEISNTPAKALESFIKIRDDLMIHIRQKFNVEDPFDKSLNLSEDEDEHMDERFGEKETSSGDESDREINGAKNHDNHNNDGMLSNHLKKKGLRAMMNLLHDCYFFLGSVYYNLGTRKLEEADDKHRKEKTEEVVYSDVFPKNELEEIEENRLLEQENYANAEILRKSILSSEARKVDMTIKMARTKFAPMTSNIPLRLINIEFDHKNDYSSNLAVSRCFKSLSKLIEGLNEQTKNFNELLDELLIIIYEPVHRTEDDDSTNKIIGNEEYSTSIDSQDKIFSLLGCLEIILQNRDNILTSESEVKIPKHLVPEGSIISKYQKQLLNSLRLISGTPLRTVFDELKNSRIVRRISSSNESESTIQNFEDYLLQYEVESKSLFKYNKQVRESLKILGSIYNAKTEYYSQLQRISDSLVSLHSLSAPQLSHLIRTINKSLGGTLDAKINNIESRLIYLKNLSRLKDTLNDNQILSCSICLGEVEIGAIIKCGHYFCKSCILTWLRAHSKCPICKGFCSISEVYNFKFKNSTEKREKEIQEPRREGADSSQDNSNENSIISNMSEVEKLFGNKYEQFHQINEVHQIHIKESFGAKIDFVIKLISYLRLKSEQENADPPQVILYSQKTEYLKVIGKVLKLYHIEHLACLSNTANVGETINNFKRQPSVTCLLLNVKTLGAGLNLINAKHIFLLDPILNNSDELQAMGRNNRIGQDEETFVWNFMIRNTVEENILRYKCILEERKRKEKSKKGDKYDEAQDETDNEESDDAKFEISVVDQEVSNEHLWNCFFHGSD
UniProt P25694: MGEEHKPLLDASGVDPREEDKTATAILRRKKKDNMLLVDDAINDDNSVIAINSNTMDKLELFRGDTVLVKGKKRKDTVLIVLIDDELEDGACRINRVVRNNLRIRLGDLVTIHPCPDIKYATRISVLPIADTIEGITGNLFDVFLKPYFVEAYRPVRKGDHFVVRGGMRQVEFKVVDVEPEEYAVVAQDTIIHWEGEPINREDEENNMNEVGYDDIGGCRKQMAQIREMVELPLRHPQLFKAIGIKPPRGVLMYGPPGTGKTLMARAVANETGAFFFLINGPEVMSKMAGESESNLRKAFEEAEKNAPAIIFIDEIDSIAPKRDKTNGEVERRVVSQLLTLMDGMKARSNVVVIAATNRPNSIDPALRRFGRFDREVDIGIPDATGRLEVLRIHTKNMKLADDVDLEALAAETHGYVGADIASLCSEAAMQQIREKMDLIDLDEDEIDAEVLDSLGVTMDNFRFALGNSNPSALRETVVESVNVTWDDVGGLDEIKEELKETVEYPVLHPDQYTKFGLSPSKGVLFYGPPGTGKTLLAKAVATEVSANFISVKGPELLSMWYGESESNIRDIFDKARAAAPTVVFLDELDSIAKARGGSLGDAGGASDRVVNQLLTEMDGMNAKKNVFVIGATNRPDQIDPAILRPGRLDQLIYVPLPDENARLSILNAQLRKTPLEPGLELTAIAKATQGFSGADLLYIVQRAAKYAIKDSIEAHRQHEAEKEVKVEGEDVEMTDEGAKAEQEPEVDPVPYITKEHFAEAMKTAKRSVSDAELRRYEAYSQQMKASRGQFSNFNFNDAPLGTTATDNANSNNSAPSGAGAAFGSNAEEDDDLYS
UniProt P25491: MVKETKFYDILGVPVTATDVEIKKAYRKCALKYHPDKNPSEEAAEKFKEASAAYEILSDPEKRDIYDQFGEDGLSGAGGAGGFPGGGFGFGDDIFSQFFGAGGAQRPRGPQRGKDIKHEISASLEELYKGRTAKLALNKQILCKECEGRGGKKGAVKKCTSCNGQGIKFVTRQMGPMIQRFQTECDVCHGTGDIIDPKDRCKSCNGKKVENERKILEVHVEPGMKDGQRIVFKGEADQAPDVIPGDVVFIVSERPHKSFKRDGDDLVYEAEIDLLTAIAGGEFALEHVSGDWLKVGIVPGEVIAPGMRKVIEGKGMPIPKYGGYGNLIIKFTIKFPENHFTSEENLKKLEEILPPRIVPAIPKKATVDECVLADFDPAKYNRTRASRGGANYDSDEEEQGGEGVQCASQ

Columns and labels:
[1] = biological target: 3xHA-Irc20-C1239A RING mutant (S. cerevisiae) (UniProt Q06554); experiment: affinity purification with mass spectrometry; cells cross-linked in vivo with 1% formaldehyde for 9 minutes, quenched with 125 mM glycine; anti-HA immunoprecipitation; three replicates; mass spectrometry
[2] = biological target: N-terminal 3xHA-tagged wild-type Irc20 (S. cerevisiae) (UniProt Q06554); experiment: affinity purification with mass spectrometry; native lysis; 15 mg total yeast lysate on anti-HA agarose beads, 4°C, 2 hours; eluted with HA peptide; three replicates against an untagged Irc20 control; tandem mass spectrometry

Substance | binding [1] | binding [2]
Cdc48 (endogenous, untagged) (from UniProt P25694 1-835) | binds | –
Ydj1 (from UniProt P25491 1-409) | – | binds

Results are given in words; binding and its absence hold for the method and conditions named. In cells and extracts the contact can be indirect. Here binding means that the protein was enriched with, or labelled near, the bait; the list need not be complete.
